Patent US6387681

Test system: NheI methylase (M.NheI) (Neisseria mucosa heidelbergensis)
Test: activity in cells
Conditions: plasmids carrying nheIM resistant to NheI digestion; 11 of 18 pACYC clones resistant; protein in cells; only the site is given

In the case of “GCTAGC (double strand) [NheI site in M.NheI-expressing plasmid DNA]”, the “activity on this sequence” value is reported as “active”.

Construct, isoform or probe ends are uncertain for at least one entry.
